Patent publication US20160159879A1 (UNIVERSITY OF NORTH CAROLINA AT CHAPEL HILL, published 2016)
Results are given in words; binding and its absence hold for the method and conditions named. In cells and extracts the contact can be indirect. Some results given as binding are weak or reduced against the parent protein; the word gives no strength. Where a sequence is shown, tags or fusion partners need not be part of it.

Experiments:
[1] = biological target: T1, Human βENaC subunit, HA (N-terminus) and V5 (C-terminus) tagged, expressed in HEK293T cells (human) (UniProt P51168); assay: peptide pull-down with EndoH treatment of the elution or tunicamycin-treated cells, Western blot
T1 sequence (glycosylated (EndoH and tunicamycin experiments, p-0362), looked up): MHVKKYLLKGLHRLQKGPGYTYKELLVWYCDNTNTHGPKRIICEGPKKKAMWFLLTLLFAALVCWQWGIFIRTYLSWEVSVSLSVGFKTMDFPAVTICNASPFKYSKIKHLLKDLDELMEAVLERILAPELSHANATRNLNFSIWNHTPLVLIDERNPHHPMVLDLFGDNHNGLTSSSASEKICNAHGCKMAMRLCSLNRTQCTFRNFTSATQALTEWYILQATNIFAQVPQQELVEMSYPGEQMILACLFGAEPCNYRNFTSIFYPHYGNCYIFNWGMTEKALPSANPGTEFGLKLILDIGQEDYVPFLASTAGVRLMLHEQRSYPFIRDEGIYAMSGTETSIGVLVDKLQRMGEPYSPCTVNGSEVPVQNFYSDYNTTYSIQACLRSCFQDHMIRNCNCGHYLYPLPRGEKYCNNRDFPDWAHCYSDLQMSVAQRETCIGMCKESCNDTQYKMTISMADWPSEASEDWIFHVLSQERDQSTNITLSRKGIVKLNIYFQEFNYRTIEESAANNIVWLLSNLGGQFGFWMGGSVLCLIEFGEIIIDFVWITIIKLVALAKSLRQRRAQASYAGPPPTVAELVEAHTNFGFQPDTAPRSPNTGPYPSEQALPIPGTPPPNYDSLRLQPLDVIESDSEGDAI

[2] = biological target: T1, Human βENaC subunit, HA (N-terminus) and V5 (C-terminus) tagged, expressed in HEK293T cells (human); assay: peptide pull-down with S18 or ADG, Western blot, n=3
[3] = biological target: T1, Human βENaC subunit, HA (N-terminus) and V5 (C-terminus) tagged, expressed in HEK293T cells (human); assay: pull-down with biotinylated S18 of subunits expressed individually, Western blot
[4] = biological target: T1, Human βENaC subunit, HA (N-terminus) and V5 (C-terminus) tagged, expressed in HEK293T cells (human); assay: peptide pull-down with EndoH or tunicamycin, Western blot
[5] = biological target: T1, Human βENaC subunit, HA (N-terminus) and V5 (C-terminus) tagged, expressed in HEK293T cells (human); assay: peptide pull-down, Western blot
[6] = biological target: T1, Human βENaC subunit, HA (N-terminus) and V5 (C-terminus) tagged, expressed in HEK293T cells (human); assay: biotinylated-S18 pull-down of ENaC subunits individually expressed in HEK cells

Measured: binding

GGLPVPLDQTLPLNVNPA (biotinylated N-terminus) [Biotinylated S18 peptide]
binds: all assays above
